Measurements reported in PubChem BioAssay AID652272 (Drosophila RNAi Screening Center, 2013).

- Screen: 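Genes whose knock-down decreases or increases Hedgehog reporter output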 (primary screen)
- Cell system: Drosophila clone 8 (Cl8) cells
- Reagents: long dsRNA against Drosophila genes
- Measurement: 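Plate reader light from a firefly reporter under a ptc promoter fragment that responds to Hedgehog, with Renilla light as transfection reference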
- Scale: firefly Hh reporter signal: higher = more ptc reporter light; Renilla reference signal: higher = more Renilla control light
- Call rule: 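Hit when the z-score averaged over two replicates is under -2 or over +3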
- Meaning of the calls: active = hit: reporter lowered or raised; inactive = not a hit
In all, the deposit lists about 21,000 reagents; shown is an unselected part of those that have a named target and a result. Of all reagents, 503 (2.4%) got an active call. 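Raw plate light values, not normalised; calls rest on replicate z-scores that were not deposited; hits include reporter decreases as well as increases.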 Reagents against one gene are numbered here. The record does not give: the amount of reagent, the time to read-out.

no.	gene knocked down	dsRNA no.	firefly Hh reporter signal, replicate 1	firefly Hh reporter signal, replicate 2	Renilla reference signal, replicate 1	Renilla reference signal, replicate 2	activity call
1	Trmt6	1	1.17e5	63805	2032	6800	inactive
2	Ugt316A1	1	67712	1.00e5	2520	3090	inactive
3	mRpL17	1	1.33e5	44859	4181	2929	inactive
4	CG7330	1	1.45e5		1734	6589	inactive
5	CG7330	2	1.37e5		1665	6401	inactive
6	CG12911	1	81320	39851	2147	3666	inactive
7	ena	1	66993	1.35e5	1872	5152	inactive
8	ena	2	99459	83667	5044	3637	inactive
9	Raf	1	50519	1.93e5	1483	7083	inactive
10	CG42615	1	1.48e5	2.84e5	3655	11916	inactive
11	Gyc89Da	1	1.44e5	1.36e5	5328	2872	inactive
12	CecA1	1	82872	98666	2189	2929	inactive
13	CG43428	1	77568	38982	1973	3458	inactive
14	CG17258	1	1.51e5	85184	1991	7371	inactive

Reprinted from the listing, 4 entries:
no.	gene knocked down	dsRNA no.	firefly Hh reporter signal, replicate 1	firefly Hh reporter signal, replicate 2	Renilla reference signal, replicate 1	Renilla reference signal, replicate 2	activity call
11	Gyc89Da	1	1.44e5	1.36e5	5328	2872	inactive
12	CecA1	1	82872	98666	2189	2929	inactive
13	CG43428	1	77568	38982	1973	3458	inactive
14	CG17258	1	1.51e5	85184	1991	7371	inactive

Continued:
no.	gene knocked down	dsRNA no.	firefly Hh reporter signal, replicate 1	firefly Hh reporter signal, replicate 2	Renilla reference signal, replicate 1	Renilla reference signal, replicate 2	activity call
15	Tctp	1	48150	1.27e5	1829	3392	inactive
16	RpLP2	1	26288	13739	1075	2049	active
17	CG1946	1	88514	63705	1784	4256	inactive
18	CG8611	1	67891	80889	1600	2160	inactive
19	CG13733	1	1.15e5		3778	3413	inactive
20	MED26	1	3.84e5	1.63e5	15994	3016	inactive
21	MED26	2	69728	1.93e5	1648	5808	inactive
22	MED26	3	98328	65232	2043	1645	inactive
23	Idi	1	74514	1.09e5	3648	4547	inactive
24	CG31436	1	5.38e5	1.23e5	28228	3853	inactive
25	Pef	1	94088	59266	4044	2256	inactive
26	mRpL28	1	1.01e5	46842	2568	4453	inactive
27	Lamp1	1	54996	58221	1288	5125	inactive
28	CG32243	1	1.52e5	2.11e5	4269	9564	inactive
29	CG9521	1	77368	1.57e5	2456	6694	inactive
30	gd	1	66641	2.86e5	1830	9885	inactive
31	CG12307	1	75821	74585	1312	6135	inactive
32	SelT	1	76982	45478	3238	1786	inactive
33	Cep89	1	92080	33002	2491	330	inactive
34	Mon1	1	1.14e5	45805	3104	4969	inactive
35	ACXD	1	46278	35522	1588	2445	inactive
36	hkb	1	1.18e5	1.13e5	4378	12066	inactive
37	CG14490	1	66294	64456	1623	4389	inactive
38	Asap	1	1.38e5	62325	3348	5421	inactive
39	Asap	2	84925	54269	3557	1851	inactive
